Source: PubChem BioAssay AID540256 (National Center for Advancing Translational Sciences (NCATS), 2011)
Among all 300,000 compounds or so, about 3,700 (1.2%) were called active. The shares of active, inactive and inconclusive entries below differ from those in the screen. The call rests on the fitted dose curve; tested in HEK293 cells. Potencies beside an inconclusive call are fits to weak or partial responses and may not hold up.

Assay: qHTS for Inhibitors of binding or entry into cells for Lassa Virus; further: nearly all actives have a fitted effect of over 50% in size
Conditions: Lassa virus pseudotype entry inhibition, cell reporter; activity change, negative = inhibition: at 37.9 µM (top of the series) unless noted
On the % scale 0 is the no-effect control and ±100 the full control effect; potency means the concentration at half of the fitted maximal effect.

| Compound | Potency | activity change, negative = inhibition |
| --- | --- | --- |
| CN1CCC2(CC1)c1ccccc1-c1ccccc12 | inconclusive: 4.47 µM [inhibitor, partial curve] | – |
| Cc1ccnc(Sc2ccc([N+](=O)[O-])cc2[N+](=O)[O-])n1 | inconclusive: 32.6 µM [inhibitor, single point] | – |
| Cc1ccc(SC(C)C(=O)N2CCCC2)cc1 (stereo not given) | inconclusive: 4.11 µM [inhibitor, full curve] | – |
| CCOc1ccccc1C(=O)Nc1cccc(-c2nc3ccccc3s2)c1 | – | inactive: -6.29% [at 46.1 µM] |
| CCC(=O)N1CCCc2cc(S(=O)(=O)N3CCC(C(=O)NC4CCC(C)CC4)CC3)ccc21 (stereo not given) | – | inactive: -28.5% [at 46.1 µM] |
| COc1ccc(-n2c(CCc3ccccc3)nnc2SCC(=O)NCc2ccccc2)cc1 | inconclusive: 17.8 µM [inhibitor, partial curve, poor fit] | – |
| COc1ccc(OC)c(N(CC(=O)Nc2cccc3ccccc23)S(C)(=O)=O)c1 | inconclusive: 4.47 µM [inhibitor, partial curve, poor fit] | – |
| O=C(CSc1nc2c([nH]c3ccccc32)c(=O)n1-c1ccccc1F)Nc1cccc(Cl)c1 | – | inactive: -23.9% [at 46.1 µM] |
| COc1ccc(CCNc2ncnc3sc(C)cc23)cc1OC | inconclusive: 28.2 µM [inhibitor, partial curve, poor fit] | – |
| N#Cc1cc(-c2ccccc2)nnc1Sc1ccc(Cl)cc1 | inconclusive: 1.26 µM [activator, single point] | – |
| CCOC(=O)c1c(CN(C)C)n(-c2ccc(C)cc2)c2cc(Br)c(O)cc12 | inconclusive: 11.2 µM [inhibitor, partial curve, poor fit] | – |
| COc1ccccc1-c1cc(C(=O)Nc2cccnc2)no1 | inconclusive: 0.092 µM [inhibitor, full curve, poor fit] | – |
| CC(C)CCC(CC(C)O)c1n[nH]c(=S)n1-c1ccccc1 (stereo not given) | – | inactive: 1.83% |
| CC(=O)NCCc1ccc(C(=O)Cn2cnc3ccccc3c2=O)cc1 | – | inactive: 9.04% |
| COc1ccc(C(CCNCc2ccc(N(C)C)cc2)c2ccccc2OC)cc1 (stereo not given) | active: 15.8 µM | – |
| CC(=O)Nc1cc2c(cc1Br)OCCO2 | – | inactive: 12.4% |
| CC(Nc1oc(-c2ccc(COc3ccccc3)o2)nc1C#N)c1ccccc1 (stereo not given) | inconclusive: 35.5 µM [inhibitor, single point] | – |
| COCc1c(C(=O)N2CCN(Cc3c(F)cccc3Cl)CC2)oc2ccccc12 | inconclusive: 0.631 µM [inhibitor, full curve, poor fit] | – |
| COc1ccc(CC2(C)OC(c3ccc(C)c([N+](=O)[O-])c3)=NN2C(C)=O)cc1 (stereo not given) | active: 0.794 µM | – |
| CCC(CC)NC(=O)c1ccc2nc[nH]c2c1 | – | inactive: 3.98% |
| O=C(N/N=C/c1cccc([N+](=O)[O-])c1)c1cccc(Br)c1 | – | inactive: -0.0945% |
| CCC(Sc1nnc(-c2ccc(F)cc2)c(-c2ccc(F)cc2)n1)C(=O)NC1CCCC1 (stereo not given) | – | inactive: -45.8% [at 46.1 µM] |
| Cc1cc(C)c(C)c(S(=O)(=O)NCc2ccc(C(=O)N3CCCC3)cc2)c1C | – | inactive: -13.5% |

3 entries already listed, sorted by SMILES length, largest number first.

| Compound | Potency | activity change, negative = inhibition |
| --- | --- | --- |
| CCC(=O)N1CCCc2cc(S(=O)(=O)N3CCC(C(=O)NC4CCC(C)CC4)CC3)ccc21 (stereo not given) | – | inactive: -28.5% [at 46.1 µM] |
| COc1ccccc1-c1cc(C(=O)Nc2cccnc2)no1 | inconclusive: 0.092 µM [inhibitor, full curve, poor fit] | – |
| CCC(CC)NC(=O)c1ccc2nc[nH]c2c1 | – | inactive: 3.98% |

The list goes on:

| Compound | Potency | activity change, negative = inhibition |
| --- | --- | --- |
| Cn1nc(C(=O)NC2CCCN(Cc3ccccc3F)C2)c2ccccc2c1=O (stereo not given) | inconclusive: 2 µM [inhibitor, full curve, poor fit] | – |
| COc1cccc(NC(=O)CNS(=O)(=O)c2ccc(Cl)cc2)c1 | inconclusive: 1.26 µM [inhibitor, single point] | – |
| COc1ccccc1NC(=O)CC(=O)CSc1nnc(-c2ccc(C)cc2)n1-c1ccccc1 | – | inactive: 2.86% |
| CCOc1ccc(C(c2c(O)cc(C)n(Cc3ccco3)c2=O)N2CCN(C)CC2)cc1 (stereo not given) | inconclusive: 5.62 µM [activator, single point] | – |
| COc1cc2c(cc1OC)CN(S(=O)(=O)/C=C/c1ccccc1)CC2 | active: 1.26 µM | – |
| Cc1cccc(Nc2nc(-c3ccccc3)nc3ccccc23)c1 | – | inactive: -7.94% [at 46.1 µM] |
| CCCCCCCc1c(C)nc(N2CCOCC2)[nH]c1=O | inconclusive: 0.164 µM [inhibitor, full curve, poor fit] | – |
| CC1CCCN(c2ccc(C(=O)Nc3cccnc3)cc2[N+](=O)[O-])C1 (stereo not given) | inconclusive: 12.6 µM [inhibitor, partial curve, poor fit] | – |
| O=C(NCc1ccco1)c1ccc(CS(=O)Cc2cccc(Cl)c2)o1 (stereo not given) | inconclusive: 22.4 µM [inhibitor, single point] | – |
| O=C(NCC(=O)N(c1ccccc1F)C(C(=O)NC1CCCC1)c1ccco1)c1ccco1 (stereo not given) | inconclusive: 39.8 µM [inhibitor, partial curve, poor fit] | – |
| CC1CCCCN1C(=O)c1ccc(OC2CCN(S(=O)(=O)N(C)C)CC2)cc1 (stereo not given) | – | inactive: -3.16% [at 46.1 µM] |
| Fc1ccc(-n2cc(CNCCc3ccccn3)c(-c3ccccc3Cl)n2)cc1 | inconclusive: 0.631 µM [inhibitor, full curve, poor fit] | – |
| COc1ccc(-c2cc(C(=O)NCCN3CCOCC3)c3ccccc3n2)cc1 | – | inactive: -12.6% |
| CCCOc1ccc(C2C(=O)N(C3CCCCC3)CC(=O)N2C2CCCCC2)cc1OC (stereo not given) | inconclusive: 11.2 µM [activator, partial curve, poor fit] | – |
| CC(C)Cn1c(O)c(N=NC(=O)c2cccc(S(=O)(=O)N3CCCCC3)c2)c2ccccc21 | inconclusive: 17.8 µM [inhibitor, single point] | – |
| Cc1ccccc1CNCCCSc1nnnn1C | – | inactive: -6.85% [at 46.1 µM] |
| COc1ccc(C2C(C(=O)Nc3ccccc3)=C(C)Nc3nc(-c4ccc(Cl)cc4)nn32)cc1 (stereo not given) | inconclusive: 12.6 µM [inhibitor, partial curve] | – |
| CCOc1ccc(CNC(=O)c2cc3c(=O)oc4ccc(C)cc4c3s2)cc1 | – | inactive: 9.23% [at 46.1 µM] |
| CN(C1=C(NC(=O)c2ccccc2)C(=O)c2ccccc2C1=O)C1CCS(=O)(=O)C1 (stereo not given) | inconclusive: 20.6 µM [inhibitor, single point] | – |
| O=C1C(=C(I)I)c2ccccc2-c2ccccc21 | inconclusive: 35.5 µM [inhibitor, single point] | – |
| O=C(/C=C/c1cccc2ccccc12)c1ccncc1 | inconclusive: 35.5 µM [inhibitor, single point] | – |
| Cc1ccccc1OCC(=O)NNC(=O)Nc1ccc(Cl)cc1 | inconclusive: 3.26 µM [inhibitor, full curve, poor fit] | – |
